Assay results reported in patent US6495144.
These are yes or no findings as the source states them, for the method shown. Some results given as binding are weak or reduced against the parent protein; the word gives no strength.

Chains of the proteins cited; added tags and fusions are not shown. Residues count along the entry.
UniProt Q06330: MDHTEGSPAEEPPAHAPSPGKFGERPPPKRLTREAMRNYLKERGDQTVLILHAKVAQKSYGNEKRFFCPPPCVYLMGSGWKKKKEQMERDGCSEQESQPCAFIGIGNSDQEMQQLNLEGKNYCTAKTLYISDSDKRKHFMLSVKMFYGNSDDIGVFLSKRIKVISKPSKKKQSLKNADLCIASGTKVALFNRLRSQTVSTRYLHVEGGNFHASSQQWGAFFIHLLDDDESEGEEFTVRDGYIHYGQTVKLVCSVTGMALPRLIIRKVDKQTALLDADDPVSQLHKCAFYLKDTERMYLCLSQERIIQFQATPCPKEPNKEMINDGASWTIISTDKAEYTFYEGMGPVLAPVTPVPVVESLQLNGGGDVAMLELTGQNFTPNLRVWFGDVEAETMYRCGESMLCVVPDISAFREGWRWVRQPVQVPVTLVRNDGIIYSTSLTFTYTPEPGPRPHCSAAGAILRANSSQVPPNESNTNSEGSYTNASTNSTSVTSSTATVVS
UniProt Q69022, residues 216-392: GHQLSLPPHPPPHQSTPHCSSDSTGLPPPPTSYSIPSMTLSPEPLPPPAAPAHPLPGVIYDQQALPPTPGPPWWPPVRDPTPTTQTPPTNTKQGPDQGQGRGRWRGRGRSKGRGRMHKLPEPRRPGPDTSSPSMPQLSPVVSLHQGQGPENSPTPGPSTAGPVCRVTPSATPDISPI
UniProt P12978, residues 252-425: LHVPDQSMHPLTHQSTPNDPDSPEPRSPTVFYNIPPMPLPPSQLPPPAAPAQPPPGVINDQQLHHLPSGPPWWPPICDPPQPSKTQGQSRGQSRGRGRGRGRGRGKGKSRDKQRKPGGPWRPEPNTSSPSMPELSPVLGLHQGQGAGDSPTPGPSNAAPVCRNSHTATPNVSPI

Target: CBF1/RBPJk (UniProt Q06330)
Test: EMSA, in vitro translated peptide and CBF1

With “type B EBNA2 comprising amino acids 216-392 (from UniProt Q69022 216-392)” the binding was “binds”.
In the case of “wild-type EBNA2 peptide comprised of amino acids 252-425 (type A) (from UniProt P12978 252-425)”, the binding is reported as “binds”.
